PubChem BioAssay AID504791 | Drosophila RNAi Screening Center – 2011

Screen: 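Genes of the fly required for silencing by miRNA, siRNA or endo-siRNA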 (primary screen)
Cells: Drosophila S2-derived reporter cells
Reagents: long dsRNA against Drosophila genes, about 150-250 ng dsRNA per well (siRNA assay); about 80-120 ng (miRNA assay)
Time to read-out: about 5 days (siRNA assay); about 4 days (miRNA assay)
Conditions: copper sulfate induction of reporters: 25 µM (siRNA assay); 200 mM stated (miRNA assay), 1-2 days before reading
Detection: 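Per-well ratio of Renilla over firefly light, expressed relative to that plate's average ratio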
Scale: siRNA reporter hit score: higher = 3 marks a strong hit with raised ratio; -3 a strong hit with lowered ratio
Hit rule: 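First-pass picks had plate-scaled ratios over 1.5 for the siRNA assay, over 1.6 for the miRNA assay, or under 0.6; two distinct dsRNAs had to score alike on retest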
The screen tested about 23,000 reagents; this is an unselected part of those that have a named target and a result. Over the whole deposit, 199 (0.86%) got an active call. 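Plate-scaled ratios behind the calls are not deposited; printed light signals are raw; many rows marked increased or decreased are still called inactive.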 Entries without a mark were called inactive. The numbers tell different reagents against one gene apart. A plus sign joins genes that one reagent is predicted to hit. No sequences are given here.

| gene | reagent no. | siRNA reporter hit score | stable siRNA reporter change | miRNA reporter change | stable assay Renilla, run 1 (luminescence) | stable assay firefly, run 1 (luminescence) |
| --- | --- | --- | --- | --- | --- | --- |
| Ak6 | 1 | – | – | – | 6342 | 2.82e5 |
| CG1582 | 1 | – | – | – | 7467 | 4.67e5 |
| ng2 | 1 | – | – | – | 5599 | 3.93e5 |
| mRpL40 | 1 | – | – | – | 5666 | 4.06e5 |
| Spn47C | 1 | – | – | – | 8180 | 4.84e5 |
| Nek2 | 1 | – | – | – | 3656 | 4.03e5 |
| RNaseX25 | 1 | – | – | – | 7371 | 3.24e5 |
| SMC2 | 1 | – | – | – | 9043 | 3.77e5 |
| Col4a1 | 1 | – | – | – | 9589 | 1.77e5 |
| Kpc1 | 1 | – | – | – | 9433 | 6.71e5 |
| CG1571 | 1 | – | – | – | 6515 | 4.40e5 |
| Achl | 1 | – | – | – | 5608 | 3.55e5 |
| CG18766 | 1 | – | – | – | 7368 | 4.52e5 |
| CG32642 | 1 | – | – | – | 5494 | 4.18e5 |
| Cys | 1 | – | – | – | 6831 | 4.08e5 |
| CG12926 | 1 | – | – | – | 4483 | 3.56e5 |
| CG12926 | 2 | – | – | – | 10732 | 4.93e5 |
| CG13590 | 1 | – | – | – | 4811 | 6.34e5 |
| CG7882 | 1 | – | – | – | 5319 | 2.61e5 |
| Obp56d | 1 | – | – | reporter ratio lowered past the hit cutoff | 4972 | 2.47e5 |
| CR18275 + CG13373 | 1 | – | reporter ratio lowered past the hit cutoff | – | 5518 | 6.49e5 |
| CG14411 | 1 | – | – | – | 5372 | 4.71e5 |
| wls | 1 | – | – | – | 9457 | 5.87e5 |
| CG9150 | 1 | – | – | – | 7327 | 4.08e5 |
| CG33773 | 1 | – | – | – | 6704 | 3.35e5 |
| ver | 1 | – | – | – | 6291 | 4.51e5 |
| Myb | 1 | – | – | – | 7108 | 3.40e5 |
| CG8813 | 1 | – | – | – | 16227 | 2.08e5 |
| ReepB | 1 | – | – | – | 8392 | 4.56e5 |
| CG13045 | 1 | – | – | – | 8514 | 4.23e5 |
| Drat | 1 | – | – | – | 8855 | 5.19e5 |
| Cyp6a14 (retired record) | 1 | – | – | – | 6150 | 3.25e5 |
| Act79B | 1 | – | reporter ratio lowered past the hit cutoff | – | 5890 | 5.66e5 |
| CG11149 | 1 | – | – | – | 7434 | 4.61e5 |
| Faa | 1 | – | – | – | 7871 | 4.57e5 |
| LysD + LysC (retired record) | 1 | – | – | – | 6312 | 4.28e5 |
| LysD + LysC (retired record) | 2 | – | reporter ratio lowered past the hit cutoff | – | 1964 | 3.05e5 |
| dah | 1 | – | – | – | 9246 | 6.57e5 |
| CG13229 | 1 | – | – | – | 6812 | 5.15e5 |
| Sil1 | 1 | – | – | – | 11598 | 5.34e5 |
| Obp83a | 1 | – | – | – | 6963 | 5.44e5 |

An excerpt from above, limited to “stable assay Renilla, run 1 (luminescence)”:
Achl	5608
CG18766	7368
CG32642	5494
Cys	6831
CG12926 #1	4483

Additional results:
| gene | reagent no. | siRNA reporter hit score | stable siRNA reporter change | miRNA reporter change | stable assay Renilla, run 1 (luminescence) | stable assay firefly, run 1 (luminescence) |
| --- | --- | --- | --- | --- | --- | --- |
| CG17744 | 1 | – | – | – | 5782 | 3.57e5 |
| fzo | 1 | – | – | – | 6530 | 3.22e5 |
| mdy | 1 | – | – | – | 5192 | 3.65e5 |
| mdy | 2 | – | – | – | 9916 | 1.94e6 |
| Nubp2 | 1 | – | – | – | 8163 | 4.53e5 |
| bbc | 1 | – | – | – | 4815 | 4.80e5 |
| bbc | 2 | – | – | – | 9894 | 4.99e5 |
| fkh | 1 | – | – | – | 5747 | 3.52e5 |
| CG34217 | 1 | – | – | – | 5278 | 4.59e5 |
| UGP | 1 | – | – | – | 6948 | 3.70e5 |
| HP4 | 1 | – | – | – | 7888 | 4.80e5 |
| Tsp42Er | 1 | – | – | – | 6731 | 4.76e5 |
| Fum2 | 1 | – | – | – | 5419 | 3.25e5 |
| CG3071 | 1 | – | – | – | 7102 | 3.21e5 |
| CG32719 | 1 | – | – | – | 5024 | 3.48e5 |
| Tfb4 | 1 | -3 | – | – | 6459 | 3.07e5 |
| Mal-A4 | 1 | – | – | – | 7586 | 3.82e5 |
| GluRIIA | 1 | – | – | – | 7894 | 3.27e5 |
| lcs | 1 | – | – | – | 5131 | 4.82e5 |
| Tango9 | 1 | – | – | – | 9027 | 4.63e5 |
| kek2 | 1 | – | – | – | 7386 | 4.16e5 |
| Ranbp21 | 1 | – | – | – | 9457 | 5.51e5 |
| e(y)2b | 1 | – | – | – | 6906 | 4.94e5 |
| CG6028 | 1 | – | – | – | 8041 | 3.71e5 |
| Son | 1 | – | – | – | 5656 | 4.57e5 |
| GstT2 | 1 | – | – | – | 5726 | 2.98e5 |
| mr | 1 | – | – | – | 85782 | 1.33e6 |
| mr | 2 | – | – | – | 4850 | 4.31e5 |
| Zw10 | 1 | – | – | – | 7963 | 4.42e5 |
| link | 1 | – | – | reporter ratio lowered past the hit cutoff | 4808 | 3.23e5 |
| Isha | 1 | – | – | – | 3.46e5 | 3.91e5 |
| drongo | 1 | – | – | – | 21010 | 1.95e5 |
| CG3349 | 1 | – | – | – | 8125 | 3.17e5 |
| Dap160 | 1 | – | – | – | 7817 | 6.16e5 |
| CG11018 | 1 | – | – | – | 8447 | 3.61e5 |
| CG17350 | 1 | – | – | – | 6448 | 3.81e5 |
| Hsp110 | 1 | – | – | – | 10886 | 4.42e5 |
| CG17234 | 1 | – | – | – | 8384 | 3.44e5 |
| CG15471 | 1 | – | – | – | 5594 | 3.43e5 |
| CG32700 | 1 | – | – | – | 5410 | 3.90e5 |
| CG32700 | 2 | – | – | – | 5371 | 4.21e5 |
| Slu7 | 1 | – | reporter ratio raised past the hit cutoff | – | 8190 | 3.18e5 |
